# Data: the supplement of paper PMC5355238
# Counter-ions that a name gives are not always drawn. ± gives the standard deviation of the averaged measurements. The list shows a part of the results. Single values are uncertain, as repeats are few or missing.
# System: Reh
# Test: S-phase gammaH2AX median, Z-score vs plate median (drug alone); higher = more S-phase DNA damage
# Settings: MK1775 concentration 0 nM; 10 µM; 4 h
row,Compound,S-phase gammaH2AX median (Z-score)
1,N=C(NCCC[C@H](N)C(=O)O)N[N+](=O)[O-] [NG-Nitro-L-arginine],0.0473
2,CCCN(CCC)C1Cc2cc(OC)c(OC)cc2C1,0.407
3,O=c1c2ccccc2[se]n1-c1ccccc1 [Ebselen],0.0598
4,NCC#Cc1ccccc1 [3-Phenylpropargylamine hydrochloride],0
5,COC(=O)N1CCN(C(=O)Cc2ccc(Cl)c(Cl)c2)C(CN2CCCC2)C1 (configuration not stated),0.265
6,NCC(O)c1ccc(O)cc1 (configuration not stated) [(?)-Octopamine hydrochloride],0.187
7,CC(C)NC(C)Cc1ccc(I)cc1 (configuration not stated) [Iofetamine hydrochloride],0.0252
8,CN1CCc2cccc(Cl)c2CC1,0.147
9,COC(=O)[C@@H](N)CCCNC(=N)N[N+](=O)[O-] [NG-Nitro-L-arginine methyl ester hydrochloride],-0.0166
10,NC(CCCCCP(=O)(O)O)C(=O)O (configuration not stated) [(?)-2-Amino-7-phosphonoheptanoic acid],0.124
11,S=C=Nc1cccc(C2(N3CCCCC3)CCCCC2)c1 [Metaphit methanesulfonate],0
12,CN1CCC23CCCCC2C1Cc1ccc(O)cc13 [Dextrorphan D-tartrate],-0.132
13,CC(=O)O[C@H]1C[C@@H]2CC[C@@H]3[C@H](CC[C@@]4(C)[C@H]3C[C@H]([N+]3(C)CCCCC3)[C@@H]4OC(C)=O)[C@@]2(C)C[C@@H]1[N+]1(C)CCCCC1 [Pancuronium bromide],-0.591
14,CP(=O)(O)C1=CCNCC1,0.0601
15,NC(=O)c1cc(N2CC2)c([N+](=O)[O-])cc1[N+](=O)[O-],0.0155
16,Cn1cc(C2=C(c3cn(C4CCN(Cc5ccccn5)CC4)c4ccccc34)C(=O)NC2=O)c2ccccc21,0.128
17,C=CCN1CC[C@]23c4c5ccc(O)c4O[C@H]2C(=O)CC[C@@]3(O)[C@H]1C5 [Naloxone hydrochloride],0.0922
18,CC[C@@H](C(=O)[C@@H](C)[C@@H](O)[C@H](C)[C@@H]1O[C@@H]([C@@H](CC)C(=O)O)CC[C@@H]1C)[C@H]1O[C@]2(C=C[C@@H](O)[C@]3(CC[C@@](C)([C@H]4CC[C@](O)(CC)[C@H](C)O4)O3)O2)[C@H](C)C[C@@H]1C [Salinomycin (Procoxacin)],0.0329
19,"COc1ccc2[nH]c3c(c2c1)CCNC3 [6-Methoxy-1,2,3,4-tetrahydro-9H-pyrido[3,4b] indole]",0.033
20,NC(=O)CI [Iodoacetamide],0.142
21,CN1CC[C@]2(CCN3CCc4c(oc5ccccc45)[C@@H]3C2)N(C)C1=O,0.156
22,N#CC(C#N)=Cc1ccc(O)c(O)c1 [Tyrphostin 23],-0.1
23,CN1[C@@H]2C[C@@H](OC(=O)[C@H](CO)c3ccccc3)C[C@H]1[C@@H]1O[C@@H]12 [(-)-Scopolamine hydrobromide],-0.174
24,COc1cc(CC(C)N)c(OC)cc1I (configuration not stated) [(?)-DOI hydrochloride],-0.0157

row,Compound,S-phase gammaH2AX median (Z-score)
1,NNCc1cccc(O)c1 [3-Hydroxybenzylhydrazine dihydrochloride],-0.0283
2,CCCN(CCC)[C@@H]1CCc2c(F)ccc(O)c2C1 [R(+)-UH-301 hydrochloride],0.0868
3,N[C@@H]1C[C@H]1c1ccccc1 [Tranylcypromine hydrochloride],0.196
4,O=C(O)[C@@H]1[C@H](C(=O)O)[C@H]2CC[C@@H]1O2 [Endothall],0.0472
5,O=C1CC[C@@]2(O)[C@H]3Cc4ccc(O)c5c4[C@@]2(CCN3CC2CC2)[C@H]1O5 [Naltrexone hydrochloride],-0.0426
6,"CN1CCc2cc(O)cc3c2[C@H]1Cc1ccc(O)c(O)c1-3 [R(-)-2,10,11-Trihydroxyaporphine hybrobromide]",0.0945
7,NC(CP(=O)(O)O)C(=O)O (configuration not stated) [(?)-2-Amino-3-phosphonopropionic acid],-0.0272
8,Oc1ccc2c3c1O[C@H]1c4[nH]c5ccccc5c4C[C@@]4(O)[C@@H](C2)N(CC2CC2)CC[C@]314 [Naltrindole hydrochloride],-0.173
9,CCCN1CCC[C@@H](c2cccc(C#N)c2)C1 [S(-)-DS 121 hydrochloride],-0.101
10,CC(NC(C)(C)C)C(=O)c1cccc(Cl)c1 (configuration not stated) [Bupropion hydrochloride],0.0738
11,NCC(CC(=O)O)c1ccc(Cl)cc1 (configuration not stated) [(?)-Baclofen],0.0524
12,"CN1CC[C@@]2(C)c3cc(O)ccc3N(C)C12 (single isomer, unassigned; (-)) [(-)-Eseroline fumarate]",-0.0661
13,CC(C)[C@]12O[C@H]1[C@@H]1O[C@]13[C@]1(O[C@H]1C[C@H]1C4=C(CC[C@@]13C)C(=O)OC4)[C@@H]2O [Triptolide],0.0909
14,CC(=O)[C@H]1CC[C@H]2[C@@H]3CC[C@H]4C[C@H](O)CC[C@]4(C)[C@H]3CC[C@]12C [5alpha-Pregnan-3alpha-ol-20-one],0.237
15,CCN1C[C@]2(C)CC[C@H](O)[C@]34C1[C@@H](C[C@H]23)[C@@]1(O)C[C@H](OC)[C@H]2C[C@@H]4[C@@H]1[C@H]2O [Karakoline],-0.022
16,CC[C@@H](CO)NC(=O)[C@@H]1C=C2c3cccc4[nH]cc(c34)C[C@H]2N(C)C1 [Methylergonovine maleate],-0.111
17,CCC1(C2=NCCN2)Cc2ccccc2O1 (configuration not stated) [Efaroxan hydrochloride],0.0882
18,CCOC(=O)c1ncn2c1[C@@H]1CCCN1C(=O)c1cc(OC)ccc1-2,0.0639
19,NC(N)=Nc1ccc2[nH]c3c(c2c1)C[C@@]1(O)[C@H]2Cc4ccc(O)c5c4[C@@]1(CCN2CC1CC1)[C@H]3O5 [Guanidinyl-naltrindole di-trifluoroacetate],-0.154
20,"CN1[C@@H]2CC[C@H]1C[C@@H](OC(=O)c1cc(Cl)cc(Cl)c1)C2 [3-Tropanyl-3,5-dichlorobenzoate]",-0.214
21,CC(C)(C)c1cc(C=C(C#N)C#N)cc(C(C)(C)C)c1O [Tyrphostin A9],-0.147
22,O=C(O)c1nn(Cc2ccc(Cl)cc2Cl)c2ccccc12 [Lonidamine],0.102 ± 0.1
23,"O=[N+]([O-])c1ccc(O[C@@H]2O[C@H](CO)[C@@H](O)[C@H](O)[C@H]2F)c([N+](=O)[O-])c1 [2,4-Dinitrophenyl 2-fluoro-2-deoxy-beta-D-glucopyranoside]",0.0945
24,O=c1[nH]oc2c1CCNC2 [THIP hydrochloride],-0.0133

row,Compound,S-phase gammaH2AX median (Z-score)
1,NC(Cc1cc(O)c(O)cc1O)C(=O)O (racemic) [6-Hydroxy-DL-DOPA],-0.0661
2,COc1cc(C(O)CN)ccc1O (configuration not stated) [(?)-Normetanephrine hydrochloride],-0.128
3,"C[N+]1(C)[C@@H]2CC(OC(=O)[C@H](CO)c3ccccc3)C[C@H]1[C@@H]1O[C@@H]12 (single isomer, unassigned; (-)) [(-)-Scopolamine methyl nitrate]",0.0734
4,NC(CCP(=O)(O)O)C(=O)O (configuration not stated) [(?)-2-Amino-4-phosphonobutyric acid],-0.0408
5,"C[N+]1(C)CCc2cc3c(cc2[C@H]1[C@@H]1OC(=O)c2c1ccc1c2OCO1)OCO3 [(-)-Bicuculline methbromide, 1(S), 9(R)]",0.142
6,COc1ccc2c(c1O)-c1cccc3c1[C@@H](C2)N(C)CC3 [R(-)-Apocodeine hydrochloride],-0.0819
7,NCC1(CC(=O)O)CCCCC1 [Gabapentin],0.0819
8,CC(C)Oc1cccnc1N(C)C1CCN(Cc2ccccc2)CC1,-0.187
9,C[C@@H]1O[C@H](C[N+](C)(C)C)CS1 [OXA-22 iodide],-0.0641
10,O=C(CCCN1CCC2(CC1)C(=O)NCN2c1ccccc1)c1ccc(F)cc1 [Spiperone hydrochloride],-0.394
11,CCCCCCC(C)(C)c1ccc([C@@H]2C[C@H](O)CC[C@H]2CCCO)c(O)c1,0.00777
12,CN1C2CCC1CC(OC(c1ccccc1)c1ccc(Cl)cc1)C2 (stereo not drawn) [4'-Chloro-3-alpha-(diphenylmethoxy)tropane hydrochloride],-0.0447
13,CCCn1c(=O)c2[nH]c(C3CCCC3)nc2n(CCCOC(=O)c2ccc(S(=O)(=O)F)cc2)c1=O,-0.0441
14,CC(O)(CS(=O)(=O)c1ccc(F)cc1)C(=O)Nc1ccc(C#N)c(C(F)(F)F)c1 (configuration not stated) [Bicalutamide (Casodex)],-0.0375
15,CC(C)c1cccc(C(C)C)c1O [Propofol],0.0126
16,Cc1nc(-c2ccc(-c3ccc(C(=O)N4CCc5cc6c(cc54)C4(CCN(C)CC4)CO6)cc3)c(C)c2)no1,-0.834
17,CCCN1CCC[C@@H]2Cc3n[nH]cc3C[C@H]21 [(-)-Quinpirole hydrochloride],-0.0307
18,CN1C[C@H](CNC(=O)OCc2ccccc2)C[C@@H]2c3cccc4c3c(cn4C)C[C@H]21 [Metergoline],-0.0899
19,N#CC(C#N)=Cc1cc(O)c(O)c(O)c1 [Tyrphostin 25],-0.214
20,OCc1cnc[nH]1 [4-Imidazolemethanol hydrochloride],0.0409
21,O=C(O)CC[N+](=O)[O-] [3-Nitropropionic acid],-0.0686
22,Oc1ccc2c3c1O[C@H]1[C@@H](O)CC[C@@]4(O)[C@@H](C2)N(CC2CCC2)CC[C@]314 [Nalbuphine hydrochloride],-0.0993
23,"CC(N)C(O)c1ccc(O)c(O)c1 (single isomer, unassigned; (-)) [(-)-alpha-Methylnorepinephrine]",-0.0157
24,CC(C)[C@@]1(NC(=O)[C@@H]2C=C3c4cccc5[nH]cc(c45)C[C@H]3N(C)C2)O[C@@]2(O)[C@@H]3CCCN3C(=O)[C@H](Cc3ccccc3)N2C1=O [Ergocristine],0.161

# 5 entries out of the list, sorted by length of the SMILES, rising:
row,Compound,S-phase gammaH2AX median (Z-score)
2,COc1cc(C(O)CN)ccc1O (configuration not stated) [(?)-Normetanephrine hydrochloride],-0.128
21,O=C(O)CC[N+](=O)[O-] [3-Nitropropionic acid],-0.0686
1,NC(Cc1cc(O)c(O)cc1O)C(=O)O (racemic) [6-Hydroxy-DL-DOPA],-0.0661
14,CC(O)(CS(=O)(=O)c1ccc(F)cc1)C(=O)Nc1ccc(C#N)c(C(F)(F)F)c1 (configuration not stated) [Bicalutamide (Casodex)],-0.0375
22,Oc1ccc2c3c1O[C@H]1[C@@H](O)CC[C@@]4(O)[C@@H](C2)N(CC2CCC2)CC[C@]314 [Nalbuphine hydrochloride],-0.0993
